The list is a part of this screen's results and no random one: it is rich in T/C values a quarter to a half above the control, in often repeated tests (any T/C) and in doses without a T/C. Other doses and runs of a compound stand elsewhere. T/C is the treated group as % of the vehicle group. Some doses have a count of surviving animals in place of a T/C: the source holds a T/C of zero for them, seemingly a mark for toxic or unscored doses. Some survivor counts are full or nearly so, which does not show that the dose was tolerated: survival well below the control is almost never listed, so the zero probably covers shortened survival too. Counts of survivors are from the toxicity check (mostly the fifth day) where no day follows; animals may have died later. Schedule codes are those of the source, read here as Q, the interval in days (D) or hours (H), X, the number of doses. Some entries were tested several times; their values stand side by side, smallest first. For survival time, the PubChem record calls one and a half times the control and up active, and a quarter to a half above the control has no call in these data; cut-offs in other NCI protocols can differ. Additions like (4×) give the number of equal values in this list. Some T/C values carry the count of animals alive at the toxicity check (mostly the fifth day); without a count, all were alive then.
Test system: P388 leukemia ip, CD2F1 mice, survival T/C
Assay: NCI In Vivo Anticancer Drug Screen. Data for tumor model P388 Leukemia (intraperitoneal) in CD2F1 (CDF1) mice
Conditions: T/C endpoint: median survival time, higher T/C = longer survival
[1] = dose: 400.0 mg/kg/injection, schedule: Q01DX009 (ip), vehicle: saline with Tween-80
[2] = dose: 50.0 mg/kg/injection, schedule: Q01DX009 (ip), vehicle: saline with Tween-80
[3] = dose: 100.0 mg/kg/injection, schedule: Q01DX009 (ip), vehicle: saline with Tween-80
[4] = dose: 200.0 mg/kg/injection, schedule: Q01DX009 (ip), vehicle: saline with Tween-80
[5] = dose: 200.0 mg/kg/injection, schedule: Q01DX005 (ip), vehicle: saline
[6] = dose: 100.0 mg/kg/injection, schedule: Q01DX005 (ip), vehicle: saline
[7] = dose: 240.0 mg/kg/injection, schedule: Q01DX005 (ip), vehicle: saline with Tween-80
[8] = dose: 50.0 mg/kg/injection, schedule: Q01DX005 (ip), vehicle: saline with Tween-80
[9] = dose: 200.0 mg/kg/injection, schedule: Q01DX005 (ip), vehicle: saline with Tween-80
[10] = dose: 3.12 mg/kg/injection, schedule: Q01DX001 (ip), vehicle: Klucel (hydroxypropylcellulose) (HPC)

Structure (SMILES): Nc1nc(=S)c2[nH]c(N=Nc3ccc(S(=O)(=O)Nc4nccs4)cc3)nc2[nH]1
- T/C (dose: 9.38 mg/kg/injection, schedule: Q01DX001 (ip), vehicle: Klucel (hydroxypropylcellulose) (HPC)): 140 % of control
- T/C (dose: 18.75 mg/kg/injection, schedule: Q01DX001 (ip), vehicle: Klucel (hydroxypropylcellulose) (HPC)): 133 % of control [5 of 6 alive]
- T/C (dose: 37.5 mg/kg/injection, schedule: Q01DX001 (ip), vehicle: Klucel (hydroxypropylcellulose) (HPC)): 133 % of control [5 of 6 alive]
- T/C (dose: 75.0 mg/kg/injection, schedule: Q01DX001 (ip), vehicle: Klucel (hydroxypropylcellulose) (HPC)): 140 % of control
- survivor count (dose: 150.0 mg/kg/injection, schedule: Q01DX001 (ip), vehicle: Klucel (hydroxypropylcellulose) (HPC)): 2 of 6

Structure (SMILES): CCOC(=O)N1CCN(CCCCCCOc2ccc(C3CCCCC3)cc2)CC1
- survivor count [1]: 3 of 6

Structure (SMILES): CCC[CH2][Sn]1([CH2]CCC)[O]OC2(CCCCC2)[O]1
- T/C (dose: 5.0 mg/kg/injection, schedule: Q01DX009 (ip), vehicle: saline with Tween-80): 127 % of control
- survivor count (dose: 10.0 mg/kg/injection, schedule: Q01DX009 (ip), vehicle: saline with Tween-80): 0 of 6

Structure (SMILES): CCOC(=O)NC(NC(=O)OCC)c1cccnc1
- survivor count (dose: 100.0 mg/kg/injection, schedule: Q04DX003 (ip), vehicle: saline): 6 of 6

Structure (SMILES): CC1CCCC(NC(=O)N(CCCl)N=O)C1 (centres undefined)
- T/C (dose: 2.0 mg/kg/injection, schedule: Q04DX003 (ip), vehicle: saline with Tween-80): 145 % of control
- T/C (dose: 8.0 mg/kg/injection, schedule: Q04DX003 (ip), vehicle: saline with Tween-80): 131 % of control
- survivor count [2]: 6 of 6
- survivor count [3]: 6 of 6
- survivor count (dose: 100.0 mg/kg/injection, schedule: Q04DX003 (ip), vehicle: saline with Tween-80): 6 of 6

Structure (SMILES): CC(c1ccccc1)C(OC(=O)c1ccc([N+](=O)[O-])cc1)c1ccccc1 (centres undefined)
- survivor count [3]: 6 of 6
- survivor count [4]: 6 of 6
- survivor count [1]: 5 of 6

Structure (SMILES): COC(=O)C(N)C(C)C (centres undefined)
- survivor count [5]: 5 of 5

Structure (SMILES): CC1=CN2C3=NCCN3C3=[N+](C)CCN3C2C=C1 (centres undefined)
- survivor count [6]: 0 of 6
- survivor count [5]: 0 of 6

Structure (SMILES): CCOC(=O)CNC(=O)c1cc2c(cn1)[nH]c1ccccc12
- survivor count [7]: 6 of 6

Structure (SMILES): CN(C)C(=S)SCNC(=S)NCSC(=S)N(C)C
- T/C [2]: 126 % of control (2×)

Structure (SMILES): C/C(=N\NC(=S)N1CCN(c2ccccn2)CC1)c1cccc(C)n1
- T/C (dose: 25.0 mg/kg/injection, schedule: Q01DX005 (ip), vehicle: saline with Tween-80): 132 % of control
- T/C [8]: 136 % of control
- survivor count [8]: 4 of 6
- survivor count (dose: 100.0 mg/kg/injection, schedule: Q01DX005 (ip), vehicle: saline with Tween-80): 0 of 6
- survivor count [9]: 0 of 6

Structure (SMILES): O=C(c1cc2c(cc1Br)OCO2)N1CCc2ccccc21
- survivor count (dose: 12.5 mg/kg/injection, schedule: Q01DX009 (ip), vehicle: other): 6 of 6
- survivor count (dose: 25.0 mg/kg/injection, schedule: Q01DX009 (ip), vehicle: other): 6 of 6

Structure (SMILES): NC(Cc1cc([N+](=O)[O-])ccc1CN(CCCl)CCCl)C(=O)O (centres undefined)
- T/C (dose: 0.5 mg/kg/injection, schedule: Q01DX009 (ip), vehicle: Klucel (hydroxypropylcellulose) (HPC)): 137 % of control
- T/C (dose: 0.94 mg/kg/injection, schedule: Q04DX003 (ip), vehicle: Klucel (hydroxypropylcellulose) (HPC)): 137 % of control
- T/C (dose: 1.0 mg/kg/injection, schedule: Q01DX009 (ip), vehicle: Klucel (hydroxypropylcellulose) (HPC)): 128 % of control
- T/C (dose: 1.56 mg/kg/injection, schedule: Q01DX001 (ip), vehicle: Klucel (hydroxypropylcellulose) (HPC)): 127 % of control
- T/C [10]: 130 % of control
- survivor count [10]: 6 of 6
- T/C (dose: 6.25 mg/kg/injection, schedule: Q01DX001 (ip), vehicle: Klucel (hydroxypropylcellulose) (HPC)): 147 % of control

Structure (SMILES): O=C[C@@H](CO)O[C@H](C=O)c1c[nH]c(=O)[nH]c1=O
- T/C (dose: 10.0 mg/kg/injection, schedule: Q01DX005 (ip), vehicle: saline, evaluated on day 30): 127 % of control
- T/C (dose: 10.0 mg/kg/injection, schedule: Q01DX005 (ip), vehicle: saline, evaluated on day 40): 127 % of control
- T/C (dose: 20.0 mg/kg/injection, schedule: Q01DX005 (ip), vehicle: saline, evaluated on day 30): 136 % of control
- T/C (dose: 20.0 mg/kg/injection, schedule: Q01DX005 (ip), vehicle: saline, evaluated on day 40): 138 % of control
- T/C (dose: 25.0 mg/kg/injection, schedule: Q04DX003 (ip), vehicle: saline): 138 % of control
- T/C (dose: 50.0 mg/kg/injection, schedule: Q04DX003 (ip), vehicle: saline): 146 % of control
- survivor count [6]: 5 of 6 and 6 of 6
- survivor count (dose: 160.0 mg/kg/injection, schedule: Q01DX005 (ip), vehicle: saline): 0 of 6
- survivor count [5]: 0 of 6
- survivor count (dose: 200.0 mg/kg/injection, schedule: Q04DX003 (ip), vehicle: saline): 3 of 6
- survivor count (dose: 400.0 mg/kg/injection, schedule: Q01DX005 (ip), vehicle: saline): 0 of 6

Structure (SMILES): c1ccc(-c2nc3cc4c(cc3n3cccc23)oc2ccccc24)cc1
- survivor count [9]: 4 of 5

Structure (SMILES): CCN=C(Nc1cccc(C2=NCCN2)c1)c1ccc(C(=NCC)Nc2cccc(C3=NCCN3)c2)cc1
- survivor count (dose: 25.0 mg/kg/injection, schedule: Q01DX005 (ip), vehicle: Klucel (hydroxypropylcellulose) (HPC)): 0 of 6
- survivor count (dose: 50.0 mg/kg/injection, schedule: Q01DX005 (ip), vehicle: Klucel (hydroxypropylcellulose) (HPC)): 0 of 6
- survivor count (dose: 100.0 mg/kg/injection, schedule: Q01DX005 (ip), vehicle: Klucel (hydroxypropylcellulose) (HPC)): 0 of 6
- survivor count (dose: 200.0 mg/kg/injection, schedule: Q01DX005 (ip), vehicle: Klucel (hydroxypropylcellulose) (HPC)): 0 of 6

Structure (SMILES): COc1cc2ccc(CC(N)=O)cc2cc1OC
- survivor count [1]: 5 of 6

Structure (SMILES): CN(Cc1ccccc1)CC(CCC1OCCO1)(CCC1OCCO1)c1ccccc1
- survivor count (dose: 200.0 mg/kg/injection, schedule: Q01DX009 (ip), vehicle: Klucel (hydroxypropylcellulose) (HPC)): 6 of 6

Structure (SMILES): CC(C)(Oc1ccc(-c2cccc3ccccc23)cc1)C(=O)O
- survivor count (dose: 50.0 mg/kg/injection, schedule: Q01DX009 (ip), vehicle: Klucel (hydroxypropylcellulose) (HPC)): 6 of 6

Structure (SMILES): O=C(O)c1cc2oc(-c3ccccc3)cc2[nH]1
- survivor count [7]: 0 of 6

Structure (SMILES): COc1c(OCC(O)CN2CCOCC2)c2c(C)coc2c2ccoc12 (centres undefined)
- survivor count (dose: 240.0 mg/kg/injection, schedule: Q01DX005 (ip), vehicle: Klucel (hydroxypropylcellulose) (HPC)): 0 of 6

Structure (SMILES): O=C(NNC(=O)c1ccc(Cl)cc1Cl)c1ccco1
- survivor count (dose: 12.5 mg/kg/injection, schedule: Q01DX009 (ip), vehicle: saline): 6 of 6
- survivor count [3]: 6 of 6
- survivor count [4]: 4 of 5

Structure (SMILES): O=C1NC(=O)C(c2ccccc2)(c2ccccc2)C2CC3c4[nH]c5ccccc5c4CCN3CC12 (centres undefined)
- survivor count (dose: 200.0 mg/kg/injection, schedule: Q01DX001 (ip), vehicle: saline): 6 of 6
- survivor count (dose: 400.0 mg/kg/injection, schedule: Q01DX001 (ip), vehicle: saline): 6 of 6

Structure (SMILES): CCO/C=C1/N=C(Cc2ccccc2)OC1=O
- survivor count (dose: 240.0 mg/kg/injection, schedule: Q01DX005 (ip), vehicle: saline + Tween-80 + alcohol): 6 of 6

Structure (SMILES): CC(=O)Nc1ncn[nH]1
- survivor count (dose: 400.0 mg/kg/injection, schedule: Q04DX003 (ip), vehicle: saline with Tween-80): 3 of 6
